According to patent publication US20090247646A1, “USE OF RESVERATROL AND DERIVATIVES THEREOF FOR PROMOTING THE WELLNESS STATE IN MAMMALS” (priority 2006, published 2009):
This continues a long series; more values of the same kind are listed elsewhere.

Test system: gene expression in heart tissue
Assay: Genome-wide gene expression in heart tissue of old mice fed a resveratrol-supplemented diet (Affymetrix Mouse Genome 430 2.0 array)
Format: in vivo

## Oc1ccc(/C=C/c2cc(O)cc(O)c2)cc1 [resveratrol, 3,4′,5-Trihydroxy-trans-stilbene]
1449024_a_at hexosaminidase A
  Effect of resveratrol on changeing gene expression from old to young profile: 70-80%
1449065_at cytosolic acyl-CoA thioesterase 1
  Effect of resveratrol on changeing gene expression from old to young profile: 90-100%
1449117_at Jun proto-oncogene related gene d1
  Effect of resveratrol on changeing gene expression from old to young profile: >100%
1449137_at pyruvate dehydrogenase E1 alpha 1
  Effect of resveratrol on changeing gene expression from old to young profile: 60-70%
1449341_a_at erythrocyte protein band 7.2
  Effect of resveratrol on changeing gene expression from old to young profile: <60%
1449349_at nudix (nucleoside diphosphate linked moiety X)-type motif 1
  Effect of resveratrol on changeing gene expression from old to young profile: >100%
1449503_at karyopherin (importin) alpha 1
  Effect of resveratrol on changeing gene expression from old to young profile: 90-100%
1449514_at G protein-coupled receptor kinase 5
  Effect of resveratrol on changeing gene expression from old to young profile: 80-90%
1449573_at expressed sequence AW319487
  Effect of resveratrol on changeing gene expression from old to young profile: >100%
1449574_a_at cell division cycle 42 homolog (S. cerevisiae)
  Effect of resveratrol on changeing gene expression from old to young profile: >100%
1449635_at DNA segment, Chr 19, Wayne State University 55, expressed
  Effect of resveratrol on changeing gene expression from old to young profile: >100%
1449928_at t-complex-associated-testis-expressed 1-like
  Effect of resveratrol on changeing gene expression from old to young profile: 90-100%
1450006_at nuclear receptor coactivator 4
  Effect of resveratrol on changeing gene expression from old to young profile: <60%
1450010_at hydroxysteroid (17-beta) dehydrogenase 12
  Effect of resveratrol on changeing gene expression from old to young profile: 90-100%
1450016_at cyclin G1
  Effect of resveratrol on changeing gene expression from old to young profile: 70-80%
1450017_at cyclin G1
  Effect of resveratrol on changeing gene expression from old to young profile: 60-70%
1450191_a_at SRY-box containing gene 13
  Effect of resveratrol on changeing gene expression from old to young profile: >100%
1450351_a_at restin (Reed-Steinberg cell-expressed intermediate filament-associated protein)
  Effect of resveratrol on changeing gene expression from old to young profile: 60-70%
1450385_at karyopherin (importin) alpha 3
  Effect of resveratrol on changeing gene expression from old to young profile: <60%
1450396_at stromal antigen 2
  Effect of resveratrol on changeing gene expression from old to young profile: 70-80%
1450416_at chromobox homolog 5 (Drosophila HP1a)
  Effect of resveratrol on changeing gene expression from old to young profile: 80-90%
1450462_at corticotropin releasing hormone receptor 2
  Effect of resveratrol on changeing gene expression from old to young profile: 70-80%
1450699_at selenium binding protein 1
  Effect of resveratrol on changeing gene expression from old to young profile: >100%
1450724_at down-regulated by Ctnnb1, a
  Effect of resveratrol on changeing gene expression from old to young profile: >100%
1450759_at bone morphogenetic protein 6
  Effect of resveratrol on changeing gene expression from old to young profile: >100%
1450777_at 5′-3′ exoribonuclease 2
  Effect of resveratrol on changeing gene expression from old to young profile: >100%
1450839_at DNA segment, human D4S114
  Effect of resveratrol on changeing gene expression from old to young profile: 90-100%
1450846_at basic leucine zipper and W2 domains 1
  Effect of resveratrol on changeing gene expression from old to young profile: 80-90%
1450853_at transducin-like enhancer of split 4, homolog of Drosophila E(spl)
  Effect of resveratrol on changeing gene expression from old to young profile: 80-90%
1450890_a_at abl-interactor 1
  Effect of resveratrol on changeing gene expression from old to young profile: >100%
1450908_at eukaryotic translation initiation factor 4E
  Effect of resveratrol on changeing gene expression from old to young profile: >100%
1450917_at myomesin 2
  Effect of resveratrol on changeing gene expression from old to young profile: >100%
1450957_a_at sequestosome 1
  Effect of resveratrol on changeing gene expression from old to young profile: >100%
1450958_at transmembrane 4 superfamily member 1
  Effect of resveratrol on changeing gene expression from old to young profile: >100%
1450974_at tissue inhibitor of metalloproteinase 4
  Effect of resveratrol on changeing gene expression from old to young profile: >100%
1450997_at serine/threonine kinase 17b (apoptosis-inducing)
  Effect of resveratrol on changeing gene expression from old to young profile: 90-100%
1451047_at integral membrane protein 2A
  Effect of resveratrol on changeing gene expression from old to young profile: 80-90%
1451072_a_at ring finger protein 4 [BLAST]
  Effect of resveratrol on changeing gene expression from old to young profile: 70-80%
1451109_a_at neural precursor cell expressed, developmentally down-regulted gene 4
  Effect of resveratrol on changeing gene expression from old to young profile: <60%
1451124_at superoxide dismutase 1, soluble
  Effect of resveratrol on changeing gene expression from old to young profile: 90-100%
1451168_a_at Rho GDP dissociation inhibitor (GDI) alpha
  Effect of resveratrol on changeing gene expression from old to young profile: >100%
1451229_at histone deacetylase 11
  Effect of resveratrol on changeing gene expression from old to young profile: >100%
1451295_a_at chromodomain helicase DNA binding protein 4
  Effect of resveratrol on changeing gene expression from old to young profile: >100%
1451336_at lectin, galactose binding, soluble 4
  Effect of resveratrol on changeing gene expression from old to young profile: 90-100%
1451345_at methylthioadenosine phosphorylase
  Effect of resveratrol on changeing gene expression from old to young profile: <60%
1451350_a_at leptin receptor gene-related protein
  Effect of resveratrol on changeing gene expression from old to young profile: >100%
1451422_at myosin XVIIIa
  Effect of resveratrol on changeing gene expression from old to young profile: >100%
1451457_at sterol-C5-desaturase (fungal ERG3, delta-5-desaturase) homolog (S. cerevisae)
  Effect of resveratrol on changeing gene expression from old to young profile: >100%
1451519_at ring finger protein 2
  Effect of resveratrol on changeing gene expression from old to young profile: >100%
1451586_at testis enhanced gene transcript
  Effect of resveratrol on changeing gene expression from old to young profile: >100%
1451726_at myotubularin related protein 6
  Effect of resveratrol on changeing gene expression from old to young profile: 80-90%
1451825_a_at coatomer protein complex, subunit zeta 1
  Effect of resveratrol on changeing gene expression from old to young profile: >100%
1451871_a_at growth hormone receptor
  Effect of resveratrol on changeing gene expression from old to young profile: <60%
1452011_a_at UDP-glucuronate decarboxylase 1
  Effect of resveratrol on changeing gene expression from old to young profile: 60-70%
1452044_at actin related protein 2/3 complex, subunit 5-like
  Effect of resveratrol on changeing gene expression from old to young profile: 90-100%
1452156_a_at nischarin
  Effect of resveratrol on changeing gene expression from old to young profile: 80-90%
1452157_at glutamyl-prolyl-tRNA synthetase
  Effect of resveratrol on changeing gene expression from old to young profile: 80-90%
1452207_at Cbp/p300-interacting transactivator, with Glu/Asp-rich carboxy-terminal domain, 2
  Effect of resveratrol on changeing gene expression from old to young profile: 60-70%
1452298_a_at Mus musculus similar to myosin homolog, brain - mouse (LOC383411), mRNA
  Effect of resveratrol on changeing gene expression from old to young profile: >100%
1452433_at No description found
  Effect of resveratrol on changeing gene expression from old to young profile: <60%
